Experiment [1] concerns the target methyl-CpG-binding domain protein 2 (MBD2) (mouse (endogenous in MLO-Y4)) (UniProt Q9Z2E1). As to the kind of experiment: co-IP; MLO-Y4 osteocyte lysates, static culture; endogenous proteins; antibodies to either Pyk2 or MBD2, reciprocal western blot; buffer 1% Triton-X-100, 145 mM NaCl, 10 mM Tris-Cl pH 7.4, 5 mM EDTA, 2 mM EGTA, 1 mM PMSF; Protein A sepharose. (In general: In western blotting, separated proteins are transferred to a membrane and probed.)

Chains of the proteins cited; added tags and fusions are not shown.
UniProt Q9Z2E1: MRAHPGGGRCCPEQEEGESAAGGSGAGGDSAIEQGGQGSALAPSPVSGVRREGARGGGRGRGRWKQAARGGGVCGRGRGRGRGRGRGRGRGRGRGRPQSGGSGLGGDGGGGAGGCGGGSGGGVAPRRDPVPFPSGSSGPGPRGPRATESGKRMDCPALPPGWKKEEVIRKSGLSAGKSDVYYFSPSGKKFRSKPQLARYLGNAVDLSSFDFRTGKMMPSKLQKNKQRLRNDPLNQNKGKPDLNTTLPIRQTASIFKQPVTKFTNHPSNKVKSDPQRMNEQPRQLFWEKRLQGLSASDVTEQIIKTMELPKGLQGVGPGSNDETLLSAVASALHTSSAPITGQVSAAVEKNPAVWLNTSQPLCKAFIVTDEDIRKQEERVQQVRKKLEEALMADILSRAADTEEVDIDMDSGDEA
UniProt Q9QVP9: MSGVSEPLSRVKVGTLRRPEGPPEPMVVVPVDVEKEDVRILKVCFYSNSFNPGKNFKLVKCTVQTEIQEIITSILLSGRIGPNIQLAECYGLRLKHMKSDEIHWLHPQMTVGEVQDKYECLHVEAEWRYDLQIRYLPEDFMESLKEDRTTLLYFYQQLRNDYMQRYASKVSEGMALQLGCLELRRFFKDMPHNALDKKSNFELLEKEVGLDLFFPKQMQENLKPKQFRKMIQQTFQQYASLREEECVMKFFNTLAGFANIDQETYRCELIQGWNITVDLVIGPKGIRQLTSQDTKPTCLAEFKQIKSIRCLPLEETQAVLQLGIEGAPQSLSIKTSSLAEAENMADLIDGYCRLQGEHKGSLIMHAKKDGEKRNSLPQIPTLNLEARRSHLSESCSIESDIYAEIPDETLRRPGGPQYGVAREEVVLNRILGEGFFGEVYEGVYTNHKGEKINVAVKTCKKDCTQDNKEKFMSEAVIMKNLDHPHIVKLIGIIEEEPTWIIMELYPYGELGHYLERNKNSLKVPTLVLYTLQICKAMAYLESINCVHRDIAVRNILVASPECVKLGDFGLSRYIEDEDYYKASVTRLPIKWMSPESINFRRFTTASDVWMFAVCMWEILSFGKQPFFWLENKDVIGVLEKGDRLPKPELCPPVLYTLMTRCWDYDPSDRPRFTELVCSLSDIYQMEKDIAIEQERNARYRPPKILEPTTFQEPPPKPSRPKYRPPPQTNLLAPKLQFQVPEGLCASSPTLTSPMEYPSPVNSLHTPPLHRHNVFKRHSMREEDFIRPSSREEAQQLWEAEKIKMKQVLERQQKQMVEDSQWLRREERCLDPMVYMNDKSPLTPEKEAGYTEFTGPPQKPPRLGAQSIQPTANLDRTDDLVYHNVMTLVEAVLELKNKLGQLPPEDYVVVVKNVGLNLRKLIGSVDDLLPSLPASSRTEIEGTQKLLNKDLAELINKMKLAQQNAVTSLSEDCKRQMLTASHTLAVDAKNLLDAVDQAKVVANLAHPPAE

Experiment [2] has the same target. Description: co-IP; MLO-Y4 osteocytes under static culture (no OFSS); endogenous proteins; immunoprecipitation with anti-MBD2, blot probed with anti-Pyk2 (Y402); buffer 1% Triton-X-100, 145 mM NaCl, 10 mM Tris-Cl pH 7.4, 5 mM EDTA, 2 mM EGTA, 1 mM PMSF.
The target is the same in experiment [3]. As to the kind of experiment: co-IP; MLO-Y4 osteocytes after 20 minutes of OFSS; endogenous proteins; immunoprecipitation with anti-MBD2 or anti-Src (Y418), blot probed with anti-Pyk2 (Y402); buffer 1% Triton-X-100, 145 mM NaCl, 10 mM Tris-Cl pH 7.4, 5 mM EDTA, 2 mM EGTA, 1 mM PMSF.
Experiment [4] addresses Pyk2 (mouse (endogenous in MLO-Y4)) (UniProt Q9QVP9). As to the kind of experiment: co-IP; MLO-Y4 osteocyte lysates, static culture; endogenous proteins; antibodies to either Pyk2 or MBD2, reciprocal western blot; buffer 1% Triton-X-100, 145 mM NaCl, 10 mM Tris-Cl pH 7.4, 5 mM EDTA, 2 mM EGTA, 1 mM PMSF; Protein A sepharose.

Results are given in words; binding and its absence hold for the method and conditions named. Binding seen in cells or lysates may run through a third protein. Some results given as binding are weak or reduced against the parent protein; the word gives no strength.

Regarding Pyk2 (from UniProt Q9QVP9 1-1009), the binding entry in experiment [1] is listed as “binds”.
Consider “Pyk2 (Y402), activated Pyk2 phosphorylated at tyrosine 402 (from UniProt Q9QVP9 1-1009)”, for which the binding result in experiment [2] is “no binding (condition: static culture, without OFSS)”; in experiment [3] it was “binds”.
On to “methyl-CpG-binding domain protein 2 (MBD2) (from UniProt Q9Z2E1 1-414)”, for which the binding entry in experiment [4] is “binds”.

Source of the values: article PMC4026426.
